Measurements: patent publication US11827543B2, “Method for continuous supply of superoxide-containing peracetate oxidant solution” (Clean Chemistry, Inc., priority 2014, dated 2023)

Assay: Jar test water parameters (hardness, calcium, magnesium, chloride, sodium, aluminum, iron, TSS, turbidity)
Conditions: for Iron (mg/L, total), after polymer / TSS (mg/L), after polymer / Iron (mg/L, total), oxidant only / TSS (mg/L), oxidant only: Example 18; for Iron (mg/L, total), after polymer / TSS (mg/L), after polymer: 0.30 mmol/L oxidant then 0.5 mg/L Polymer B-40; for Iron (mg/L, total), oxidant only / TSS (mg/L), oxidant only: 0.30 mmol/L oxidant; for Iron (mg/L, total), oxidant only / Iron (mg/L, total): untreated 76; for TSS (mg/L), oxidant only / TSS: untreated 264; for total iron: Piceance water, untreated 35 mg/L; for Aluminum (mg/L, total): untreated 2.1; for Sodium: untreated 7000; for Chloride (mg/L): untreated 12,700; for turbidity (in TSS line): untreated TSS 264 mg/L
[1] = produced water, Example 17, 29 mg/L
[2] = produced water, Example 17, 29 mg/L plus 5 mg/L Polymer B-40
[3] = produced water, Example 17, 29 mg/L plus 5 mg/L floc aid
[4] = produced water, Example 17, 52 mg/L
[5] = produced water, Example 17, 52 mg/L, listed as Sodium Peracetate Oxidant

## [O][Cl+][O-] [chlorine dioxide, reference compound]
Produced water
  Iron (mg/L, total), after polymer: 5.8 mg/L
  TSS (mg/L), after polymer: 97 mg/L
  Iron (mg/L, total), oxidant only: 64 mg/L
  TSS (mg/L), oxidant only: 756 mg/L

## CC(=O)O[O-].[Na+] [sodium peracetate oxidant, sodium peracetate]
Denver-Julesburg oil-water sample, 40 mg/L oxidant (as PAA), untreated 57 mg/L
  dissolved iron: about 47 mg/L
80 mg/L oxidant (as PAA) with anionic polymer
  total iron: about 18 mg/L
100 mg/L oxidant (as PAA) with anionic polymer
  total iron: about 8 mg/L
[1]
  Aluminum concentration reduction: about 40%
  sodium concentration reduction: about 30%
  Aluminum (mg/L, total): 1.2 mg/L
  Iron (mg/L, total): 16 mg/L
  TSS: 194 mg/L
  Sodium: 4760 mg/L
  Chloride (mg/L): 12,500 mg/L
[2]
  Aluminum concentration reduction: about 95%
  Calcium concentration decrease: about 13%
  sodium concentration reduction: about 35%
[3]
  Aluminum (mg/L, total): 0.1 mg/L
  Iron (mg/L, total): about 1.7 mg/L
  TSS: 27 mg/L
  Sodium: 4560 mg/L
  Chloride (mg/L): 12,900 mg/L
Produced water, Example 17, 29 mg/L plus 5 mg/L floc aid, listed as Sodium Peracetate Oxidant
  Iron (mg/L, total): 1.7 mg/L
[4]
  Iron (mg/L, total): about 1 mg/L
  turbidity (in TSS line): 24 FAU
[5]
  Iron (mg/L, total): 1 mg/L
  turbidity (in TSS line): (24 FAU,
Produced water
  Iron (mg/L, total), after polymer: 2.4 mg/L
  TSS (mg/L), after polymer: 32 mg/L
  Iron (mg/L, total), oxidant only: 16 mg/L
  TSS (mg/L), oxidant only: 194 mg/L
